The values below come from article PMC4551966.

Common to all, as to experiment: two-hybrid; Matchmaker Gal4 system (Clontech), yeast AH109 co-transformed with bait in pGBKT7 and prey in pGADT7; selection on plates lacking adenine, histidine, leucine and tryptophan with X-α-Gal; α-galactosidase activity
Assay [1] concerns the target CVB3 VP1 residues 3-284 fused to the GAL4 DNA-binding domain (pGBKT7-VP1) (Coxsackievirus B3 (CVB3)).
Assay [2] has as its target CVB3 VP1 truncation segment 3-197 in pGBKT7 (Coxsackievirus B3 (CVB3)).
The target in assay [3] is CVB3 VP1 truncation segment 61-284 in pGBKT7 (Coxsackievirus B3 (CVB3)).
For assay [4], the target named is CVB3 VP1 truncation segment 126-284 in pGBKT7 (Coxsackievirus B3 (CVB3)).

No constants are given. Whether binding was seen depends on the method and setting. For some assays here: A result given as binding can be weak or reduced; the word gives no strength. Where a sequence is shown, tags or fusion partners need not be part of it.

As to MQLLREMQNPRERPGLGSNPCIPFFYRADENDEVKITVI (domain or fragment, UniProt Q08379 964-1002) [GM130 truncation segment 964-1002 in pGADT7], in assay [1], the binding entry is given as “no binding”.

B1: GM130 truncation segment 809-963 in pGADT7 (domain or fragment, UniProt Q08379 809-963)
chain: QSRFMELMQEKADLKERVEELEHRCIQLSGETDTIGEYIALYQSQRAVLKERHREKEEYISRLAQDKEEMKVKLLELQELVLRLVGDRNEWHGRFLAAAQNPADEPTSGAPAPQELGAANQQGDLCEVSLAGSVEPAQGEAREGSPRDNPTAQQI
For B1, the binding entry in assay [1] is on record as “no binding”.

B2: human GM130 (C-terminal 199 amino acids) fused to the GAL4 activation domain (pGADT7-GM130) (domain or fragment, UniProt Q08379 804-1002)
chain: AMEKLQSRFMELMQEKADLKERVEELEHRCIQLSGETDTIGEYIALYQSQRAVLKERHREKEEYISRLAQDKEEMKVKLLELQELVLRLVGDRNEWHGRFLAAAQNPADEPTSGAPAPQELGAANQQGDLCEVSLAGSVEPAQGEAREGSPRDNPTAQQIMQLLREMQNPRERPGLGSNPCIPFFYRADENDEVKITVI
As to B2, the binding result in assay [2] is “no binding”; in assay [3], “binds”; in assay [1] it was “binds”; in assay [4] it was “no binding”.

B3: GM130 truncation segment 850-987 in pGADT7 (domain or fragment, UniProt Q08379 850-987)
chain: YQSQRAVLKERHREKEEYISRLAQDKEEMKVKLLELQELVLRLVGDRNEWHGRFLAAAQNPADEPTSGAPAPQELGAANQQGDLCEVSLAGSVEPAQGEAREGSPRDNPTAQQIMQLLREMQNPRERPGLGSNPCIPF
With B3, the binding entry in assay [1] is “no binding”.

B4: GM130 truncation segment 914-1002 in pGADT7 (domain or fragment, UniProt Q08379 914-1002)
chain: PTSGAPAPQELGAANQQGDLCEVSLAGSVEPAQGEAREGSPRDNPTAQQIMQLLREMQNPRERPGLGSNPCIPFFYRADENDEVKITVI
In the case of B4, the binding result in assay [1] is on record as “binds”.
